# Test results as given in the supplement of paper PMC8728848.
# The other results are listed elsewhere or left out.
# How the values were obtained:
# Test in all cases: glycan array binding signal (z-score within array); higher = stronger binding
# Details in all cases: glycan notation: IUPAC condensed, linker removed
# [1] = biological target: Neu5Ac(a2-3)Gal(b1-3)GalNAc
# Procedure, shortened: (§1)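 Glycan array binding is given as a within-array Z-score, which can be read as non-binding when negative. The arrays, 3228 of them, came from the Consortium for Functional Glycomics database and were retained only where the protein sequence was available. Z-scores were averaged across arrays of the same protein sequence at different concentrations or buffers and across linkers.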
# [2] = biological target: Neu5Ac(a2-3)Gal(b1-3)GalNAc(b1-3)Gal(a1-4)Gal(b1-4)Glc
# Procedure, shortened: as §1
# [3] = biological target: Neu5Ac(a2-3)Gal(b1-3)GalNAc(b1-4)[Neu5Ac(a2-3)]Gal(b1-4)Glc
# Procedure, shortened: as §1
# [4] = biological target: Neu5Ac(a2-3)Gal(b1-3)GalNAc(b1-4)[Neu5Ac(a2-8)Neu5Ac(a2-3)]Gal(b1-4)Glc
# Procedure, shortened: as §1
# [5] = biological target: Neu5Ac(a2-3)Gal(b1-3)GalNAc6S
# Procedure, shortened: as §1
# [6] = biological target: Neu5Ac(a2-3)Gal(b1-3)GlcNAc
# Procedure, shortened: as §1
# [7] = biological target: Neu5Ac(a2-3)Gal(b1-3)GlcNAc(b1-2)Man
# Procedure, shortened: as §1
# [8] = biological target: Neu5Ac(a2-3)Gal(b1-3)GlcNAc(b1-2)Man(a1-3)[GlcNAc(b1-4)][Neu5Ac(a2-3)Gal(b1-3)GlcNAc(b1-2)Man(a1-6)]Man(b1-4)GlcNAc(b1-4)GlcNAc
# Procedure, shortened: as §1
# [9] = biological target: Neu5Ac(a2-3)Gal(b1-3)GlcNAc(b1-2)Man(a1-3)[Neu5Ac(a2-3)Gal(b1-3)GlcNAc(b1-2)Man(a1-6)]Man(b1-4)GlcNAc(b1-4)GlcNAc
# Procedure, shortened: as §1
# [10] = biological target: Neu5Ac(a2-3)Gal(b1-3)GlcNAc(b1-2)[Neu5Ac(a2-3)Gal(b1-3)GlcNAc(b1-4)]Man(a1-6)[Neu5Ac(a2-3)Gal(b1-3)GlcNAc(b1-2)Man(a1-3)]Man(b1-4)GlcNAc(b1-4)GlcNAc
# Procedure, shortened: as §1
# [11] = biological target: Neu5Ac(a2-3)Gal(b1-3)GlcNAc(b1-3)Gal(b1-3)GlcNAc
# Procedure, shortened: as §1
# [12] = biological target: Neu5Ac(a2-3)Gal(b1-3)GlcNAc(b1-3)Gal(b1-4)GlcNAc
# Procedure, shortened: as §1
# [13] = biological target: Neu5Ac(a2-3)Gal(b1-3)GlcNAc(b1-3)GalNAc
# Procedure, shortened: as §1
# [14] = biological target: Neu5Ac(a2-3)Gal(b1-3)GlcNAc(b1-4)Gal(b1-4)Glc
# Procedure, shortened: as §1
# [15] = biological target: Neu5Ac(a2-3)Gal(b1-3)GlcNAc(b1-6)GalNAc
# Procedure, shortened: as §1
# [16] = biological target: Neu5Ac(a2-3)Gal(b1-3)GlcNAc6S
# Procedure, shortened: as §1
# [17] = biological target: Neu5Ac(a2-3)Gal(b1-3)[Fuc(a1-4)]GlcNAc
# Procedure, shortened: as §1
# [18] = biological target: Neu5Ac(a2-3)Gal(b1-3)[Fuc(a1-4)]GlcNAc(b1-3)Gal(b1-3)[Fuc(a1-4)]GlcNAc
# Procedure, shortened: as §1
# [19] = biological target: Neu5Ac(a2-3)Gal(b1-3)[Fuc(a1-4)]GlcNAc(b1-3)Gal(b1-4)[Fuc(a1-3)]GlcNAc
# Procedure, shortened: as §1
# [20] = biological target: Neu5Ac(a2-3)Gal(b1-3)[GlcNAc(b1-6)]GalNAc
# Procedure, shortened: as §1
# [21] = biological target: Neu5Ac(a2-3)Gal(b1-3)[Neu5Ac(a2-6)]GalNAc
# Procedure, shortened: as §1
# [22] = biological target: Neu5Ac(a2-3)Gal(b1-3)[Neu5Ac(a2-6)]GlcNAc(b1-3)[Fuc(a1-3)[Gal(b1-4)]GlcNAc(b1-6)]Gal(b1-4)Glc
# Procedure, shortened: as §1
# [23] = biological target: Neu5Ac(a2-3)Gal(b1-3)]Neu5Ac(a2-3)Gal(b1-4)]GlcNAc
# Procedure, shortened: as §1
# [24] = biological target: Neu5Ac(a2-3)Gal(b1-4)Glc
# Procedure, shortened: as §1
# [25] = biological target: Neu5Ac(a2-3)Gal(b1-4)GlcNAc
# Procedure, shortened: as §1
# [26] = biological target: Neu5Ac(a2-3)Gal(b1-4)GlcNAc(b1-2)Man
# Procedure, shortened: as §1
# [27] = biological target: Neu5Ac(a2-3)Gal(b1-4)GlcNAc(b1-2)Man(a1-3)[GlcNAc(b1-4)][Neu5Ac(a2-3)Gal(b1-4)GlcNAc(b1-2)Man(a1-6)]Man(b1-4)GlcNAc(b1-4)GlcNAc
# Procedure, shortened: as §1
# [28] = biological target: Neu5Ac(a2-3)Gal(b1-4)GlcNAc(b1-2)Man(a1-3)[Neu5Ac(a2-3)Gal(b1-4)GlcNAc(b1-2)Man(a1-6)]Man(b1-4)GlcNAc(b1-4)GlcNAc
# Procedure, shortened: as §1
# [29] = biological target: Neu5Ac(a2-3)Gal(b1-4)GlcNAc(b1-2)Man(a1-3)[Neu5Ac(a2-3)Gal(b1-4)GlcNAc(b1-2)Man(a1-6)]Man(b1-4)GlcNAc(b1-4)[Fuc(a1-6)]GlcNAc
# Procedure, shortened: as §1
# [30] = biological target: Neu5Ac(a2-3)Gal(b1-4)GlcNAc(b1-2)Man(a1-3)[Neu5Ac(a2-6)Gal(b1-4)GlcNAc(b1-2)Man(a1-6)]Man(b1-4)GlcNAc(b1-4)GlcNAc
# Procedure, shortened: as §1
# [31] = biological target: Neu5Ac(a2-3)Gal(b1-4)GlcNAc(b1-2)[Neu5Ac(a2-3)Gal(b1-4)GlcNAc(b1-4)]Man(a1-3)[GlcNAc(b1-4)][Neu5Ac(a2-3)Gal(b1-4)GlcNAc(b1-2)[Neu5Ac(a2-3)Gal(b1-4)GlcNAc(b1-6)]Man(a1-6)]Man(b1-4)GlcNAc(b1-4)GlcNAc
# Procedure, shortened: as §1
# [32] = biological target: Neu5Ac(a2-3)Gal(b1-4)GlcNAc(b1-2)[Neu5Ac(a2-3)Gal(b1-4)GlcNAc(b1-4)]Man(a1-3)[GlcNAc(b1-4)][Neu5Ac(a2-3)Gal(b1-4)GlcNAc(b1-4)Man(a1-6)]Man(b1-4)GlcNAc(b1-4)GlcNAc
# Procedure, shortened: as §1
# [33] = biological target: Neu5Ac(a2-3)Gal(b1-4)GlcNAc(b1-2)[Neu5Ac(a2-3)Gal(b1-4)GlcNAc(b1-6)]Man(a1-6)[Neu5Ac(a2-3)Gal(b1-4)GlcNAc(b1-2)Man(a1-3)][GlcNAc(b1-4)]Man(b1-4)GlcNAc(b1-4)GlcNAc
# Procedure, shortened: as §1
# [34] = biological target: Neu5Ac(a2-3)Gal(b1-4)GlcNAc(b1-3)Gal
# Procedure, shortened: as §1
# [35] = biological target: Neu5Ac(a2-3)Gal(b1-4)GlcNAc(b1-3)Gal(b1-3)GlcNAc
# Procedure, shortened: as §1
# [36] = biological target: Neu5Ac(a2-3)Gal(b1-4)GlcNAc(b1-3)Gal(b1-4)GlcNAc
# Procedure, shortened: as §1
# [37] = biological target: Neu5Ac(a2-3)Gal(b1-4)GlcNAc(b1-3)Gal(b1-4)GlcNAc(b1-2)Man(a1-3)[Neu5Ac(a2-3)Gal(b1-4)GlcNAc(b1-3)Gal(b1-4)GlcNAc(b1-2)Man(a1-6)]Man(b1-4)GlcNAc(b1-4)GlcNAc
# Procedure, shortened: as §1
binder,measurement,setting,value
Aap lectin (Staphylococcus epidermidis) (protein) VNLNYSSPFMSLLSMPADSSSNNTKNTIDIPPTTVKGRDNYDFYGRVDIESNPTDLNATNLTRYNYGQPPGTTTAGAVQFKNQVSFDKDFDFNIRVANNRQSNTTGADGWGFMFSKKDGDDFLKNGGILREKGTPSAAGFRIDTGYYNNDPLDKIQKQAGQGYRGYGTFVKNDSQGNTSKVGSGTPSTDFLNYADNTTNDLDGKFHGQKLNNVNLKYNASNQTFTATYAGKTWTATLSELGLSPTDSYNFLVTSS,glycan array binding signal (z-score),[1],-0.623
same,glycan array binding signal (z-score),[2],-0.878
same,glycan array binding signal (z-score),[3],-0.477
same,glycan array binding signal (z-score),[4],0.628
same,glycan array binding signal (z-score),[5],-0.872
same,glycan array binding signal (z-score),[6],-0.197
same,glycan array binding signal (z-score),[7],-0.27
same,glycan array binding signal (z-score),[8],1.11
same,glycan array binding signal (z-score),[9],-0.722
same,glycan array binding signal (z-score),[10],-0.885
same,glycan array binding signal (z-score),[11],-0.943
same,glycan array binding signal (z-score),[12],-0.71
same,glycan array binding signal (z-score),[13],-0.506
same,glycan array binding signal (z-score),[14],1.61
same,glycan array binding signal (z-score),[15],1.91
same,glycan array binding signal (z-score),[16],0.081
same,glycan array binding signal (z-score),[17],-0.496
same,glycan array binding signal (z-score),[18],-0.794
same,glycan array binding signal (z-score),[19],1.41
same,glycan array binding signal (z-score),[20],-0.72
same,glycan array binding signal (z-score),[21],-0.509
same,glycan array binding signal (z-score),[22],0.304
same,glycan array binding signal (z-score),[23],-0.05
same,glycan array binding signal (z-score),[24],0.518
same,glycan array binding signal (z-score),[25],-0.35
same,glycan array binding signal (z-score),[26],-0.335
same,glycan array binding signal (z-score),[27],-0.854
same,glycan array binding signal (z-score),[28],-0.933
same,glycan array binding signal (z-score),[29],1.01
same,glycan array binding signal (z-score),[30],-0.603
same,glycan array binding signal (z-score),[31],-0.88
same,glycan array binding signal (z-score),[32],-0.885
same,glycan array binding signal (z-score),[33],-0.339
same,glycan array binding signal (z-score),[34],0.321
same,glycan array binding signal (z-score),[35],-0.822
same,glycan array binding signal (z-score),[36],-0.266
same,glycan array binding signal (z-score),[37],-0.87

# Pulled one by one from the list above, 3 records:
binder,measurement,setting,value
Aap lectin (Staphylococcus epidermidis) (protein) VNLNYSSPFMSLLSMPADSSSNNTKNTIDIPPTTVKGRDNYDFYGRVDIESNPTDLNATNLTRYNYGQPPGTTTAGAVQFKNQVSFDKDFDFNIRVANNRQSNTTGADGWGFMFSKKDGDDFLKNGGILREKGTPSAAGFRIDTGYYNNDPLDKIQKQAGQGYRGYGTFVKNDSQGNTSKVGSGTPSTDFLNYADNTTNDLDGKFHGQKLNNVNLKYNASNQTFTATYAGKTWTATLSELGLSPTDSYNFLVTSS,glycan array binding signal (z-score),[27],-0.854
same,glycan array binding signal (z-score),[7],-0.27
same,glycan array binding signal (z-score),[37],-0.87
